PubChem BioAssay AID504786 | Drosophila RNAi Screening Center | 2011
The deposit covers about 21,000 reagents; this is an unselected part of those that have a named target and a result. 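Primary screen; positive scores mean lost reporter signal, so the sign may be inverted from the usual convention.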 The numbers tell different reagents against one gene apart.

Assay: 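Knock-downs reducing HIF reporter induction by the iron chelator DFO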 (primary screen)
Cell system: Drosophila S2 cells with a stable HIF luciferase reporter
Reagents: long dsRNA against Drosophila genes, about 0.2 µg dsRNA per well of a 384-well plate
Time to read-out: three days of knock-down, then 20 h of DFO before reading
Treatment: desferrioxamine (DFO) at 100 µM, an iron chelator that mimics hypoxia, for 20 h
Read-out: 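Firefly luciferase driven by the mouse ldh-a hypoxia-response element, measured after 20 h of 100 µM DFO; z-scores per plate, higher means more signal lost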
Direction: z-score: higher = stronger loss of HIF reporter signal

Idh (GeneID 44291) | z-score, replicate 1: 0; z-score, replicate 2: 0
CG14111 (GeneID 39497) | z-score, replicate 1: -0.3; z-score, replicate 2: -0.5
ProRS-m (GeneID 38331) | z-score, replicate 1: -0.2; z-score, replicate 2: 0
CG32633 (GeneID 326225) | z-score, replicate 1: -0.2; z-score, replicate 2: -0.2
CG34354 (GeneID 5740528) #1 | z-score, replicate 1: 0; z-score, replicate 2: -0.1
CG34354 (GeneID 5740528) #2 | z-score, replicate 1: 0; z-score, replicate 2: -0.9
CG34354 (GeneID 5740528) #3 | z-score, replicate 1: 4.3; z-score, replicate 2: 0.1
CG34354 (GeneID 5740528) #4 | z-score, replicate 1: -0.4; z-score, replicate 2: -0.5
Aldh-III (GeneID 45398) | z-score, replicate 1: 0; z-score, replicate 2: 0.2
CG31142 (GeneID 251610) | z-score, replicate 1: 0.3; z-score, replicate 2: 0.6
sbr (GeneID 43944) #1 | z-score, replicate 1: 0.7; z-score, replicate 2: 3.1
sbr (GeneID 43944) #2 | z-score, replicate 1: 4.1; z-score, replicate 2: 4.2
bru1 (GeneID 34648) #1 | z-score, replicate 2: 7.3
bru1 (GeneID 34648) #2 | z-score, replicate 1: -0.7; z-score, replicate 2: -0.6
bru1 (GeneID 34648) #3 | z-score, replicate 1: -0.4; z-score, replicate 2: -0.7
bru1 (GeneID 34648) #4 | z-score, replicate 1: -0.2; z-score, replicate 2: -0.3
bru1 (GeneID 34648) #5 | z-score, replicate 1: -0.4; z-score, replicate 2: -0.5
CG7457 (GeneID 38865) | z-score, replicate 1: -0.3; z-score, replicate 2: -0.6
dachs (GeneID 34179) #1 | z-score, replicate 1: 0.3; z-score, replicate 2: 0.4
dachs (GeneID 34179) #2 | z-score, replicate 1: -0.2; z-score, replicate 2: -0.5
ush (GeneID 33225) | z-score, replicate 1: -0.4; z-score, replicate 2: 0.5
CG8249 (GeneID 36742) | z-score, replicate 1: -0.2; z-score, replicate 2: 0.2
zf30C (GeneID 34292) | z-score, replicate 1: -0.1; z-score, replicate 2: -0.4
meru (GeneID 39727) #1 | z-score, replicate 1: 0.7; z-score, replicate 2: 0.1
meru (GeneID 39727) #2 | z-score, replicate 1: 0.4; z-score, replicate 2: 0.3
meru (GeneID 39727) #3 | z-score, replicate 1: -0.3; z-score, replicate 2: -0.4
stops (GeneID 43683) #1 | z-score, replicate 1: -0.4; z-score, replicate 2: -0.5
stops (GeneID 43683) #2 | z-score, replicate 1: -0.3; z-score, replicate 2: -0.6
stops (GeneID 43683) #3 | z-score, replicate 1: -0.2; z-score, replicate 2: -0.3

Records listed so far whose gene name starts with D or d (2):
dachs (GeneID 34179) #1 | z-score, replicate 1: 0.3; z-score, replicate 2: 0.4
dachs (GeneID 34179) #2 | z-score, replicate 1: -0.2; z-score, replicate 2: -0.5
